Results deposited as PubChem BioAssay AID1224830 (NIAID, 2016)

Assay: 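Host factors that control LPS-induced TNF expression in human macrophages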 (primary screen)
Cell system: human THP-1 monocytic leukaemia cells, TNF dual-luciferase reporter clone, PMA-differentiated to macrophage-like cells
Reagents: siRNA pool against human genes, 50 nM
Timing: LPS for 4 h, given about 3 days after siRNA transfection
Treatment: bacterial LPS (TLR4 ligand), 10 ng/ml
Measurement: 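Ratio of firefly to renilla light, scaled to the plate median and expressed as a robust z-score per replicate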
Scale: TNF reporter robust z-score: higher = stronger TNF reporter response to LPS
Call rule: 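Each well counts as active if its z-score is over 2.8 or under -1.5; controls are left without a call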
Shown is a random part of about 18,000 reagents. About 2,900 of them (16%) were called active. 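Calls are made per well; low scores hint the gene aids the LPS response, high scores that it dampens it.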 Repeated entries: four replicate wells of each siRNA pool.

gene symbol	TNF reporter robust z-score	call
CEP290 (GeneID 80184)	-0.22	inactive
CEP290 (GeneID 80184)	-0.5	inactive
CEP290 (GeneID 80184)	-0.11	inactive
CEP290 (GeneID 80184)	0.8	inactive
CDC20B (GeneID 166979)	-2.04	active
CDC20B (GeneID 166979)	-1.19	inactive
CDC20B (GeneID 166979)	-1.02	inactive
CDC20B (GeneID 166979)	-1.22	inactive
FBLN5 (GeneID 10516)	-0.79	inactive
FBLN5 (GeneID 10516)	-0.51	inactive
FBLN5 (GeneID 10516)	-0.41	inactive
FBLN5 (GeneID 10516)	0.37	inactive
RSPO2 (GeneID 340419)	-0.97	inactive
RSPO2 (GeneID 340419)	-0.82	inactive
RSPO2 (GeneID 340419)	-0.52	inactive
RSPO2 (GeneID 340419)	-1.11	inactive
RPS6KA4 (GeneID 8986)	-0.31	inactive
RPS6KA4 (GeneID 8986)	-0.79	inactive
RPS6KA4 (GeneID 8986)	-0.93	inactive
RPS6KA4 (GeneID 8986)	-1.45	inactive

Reagents above called active, once more:
gene symbol	TNF reporter robust z-score	call
CDC20B (GeneID 166979)	-2.04	active

The results go on:
gene symbol	TNF reporter robust z-score	call
GLRA1 (GeneID 2741)	-1.11	inactive
GLRA1 (GeneID 2741)	-0.04	inactive
GLRA1 (GeneID 2741)	0	inactive
GLRA1 (GeneID 2741)	-0.73	inactive
BTN3A1 (GeneID 11119)	-0.11	inactive
BTN3A1 (GeneID 11119)	-0.06	inactive
BTN3A1 (GeneID 11119)	0.4	inactive
BTN3A1 (GeneID 11119)	-0.89	inactive
SOST (GeneID 50964)	-1.83	active
SOST (GeneID 50964)	-0.29	inactive
SOST (GeneID 50964)	-0.46	inactive
SOST (GeneID 50964)	0.41	inactive
SLC33A2 (GeneID 113655)	0.09	inactive
SLC33A2 (GeneID 113655)	-0.23	inactive
SLC33A2 (GeneID 113655)	0.35	inactive
SLC33A2 (GeneID 113655)	-1.36	inactive
LRRN1 (GeneID 57633)	4.16	active
LRRN1 (GeneID 57633)	2.02	inactive
LRRN1 (GeneID 57633)	0.45	inactive
LRRN1 (GeneID 57633)	0.75	inactive
SASH1 (GeneID 23328)	0.45	inactive
SASH1 (GeneID 23328)	1.7	inactive
SASH1 (GeneID 23328)	-1.06	inactive
SASH1 (GeneID 23328)	0.54	inactive
ZFYVE19 (GeneID 84936)	-1.25	inactive
ZFYVE19 (GeneID 84936)	-0.78	inactive
ZFYVE19 (GeneID 84936)	-1.39	inactive
ZFYVE19 (GeneID 84936)	-1.23	inactive
